Patent US20160075781A1 (IMMUNOGEN, published 2016)
These are yes or no findings as the source states them, for the method shown. Some binding calls cover weakened binding; strength is not graded here.

By UniProt entry, the sequences of proteins in these tests, tags left out. Where a name states a change or a piece, a line headed by the entry shows the natural chain unless it says otherwise.
UniProt P15328: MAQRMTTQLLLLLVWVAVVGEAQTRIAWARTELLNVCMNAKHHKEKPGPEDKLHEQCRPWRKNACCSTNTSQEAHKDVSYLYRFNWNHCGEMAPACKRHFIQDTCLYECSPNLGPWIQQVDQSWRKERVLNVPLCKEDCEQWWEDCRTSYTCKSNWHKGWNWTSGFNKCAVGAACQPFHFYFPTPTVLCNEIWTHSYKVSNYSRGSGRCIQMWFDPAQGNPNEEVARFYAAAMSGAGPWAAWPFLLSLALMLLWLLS

Assays:
human folate receptor 1 [1] = biological target: T1, human folate receptor 1 (human, UniProt P15328 25-234); test: flow cytometry on FOLR1-expressing SKOV3 cells, antibodies and their SPDB-DM4, PEG4Mal-DM4, SMCC-DM1 or sulfo-SPDB-DM4 conjugates; Kd values only in FIG. 5
human folate receptor 1 [2] = biological target: T1, human folate receptor 1; test: flow cytometry on 300-19 cells expressing human FOLR1
human folate receptor 1 [3] = biological target: T1, human folate receptor 1; test: flow cytometry on 300-19 cells transfected with human FOLR1, detection with FITC anti-human secondary antibody; 300-19 parental cells as negative cell line

Measured: binding

B1: huMov19 (antibody, V domains shown)
VH: QVQLVQSGAEVVKPGASVKISCKASGYTFTGYFMNWVKQSPGQSLEWIGRIHPYDGDTFYNQKFQGKATLTVDKSSNTAHMELLSLTSEDFAVYYCTRYDGSRAMDYWGQGTTVTVSS
VL: DIVLTQSPLSLAVSLGQPAIISCKASQSVSFAGTSLMHWYHQKPGQQPRLLIYRASNLEAGVPDRFSGSGSKTDFTLNISPVEAEDAATYYCQQSREYPYTFGGGTKLEIKR
notes: Resurfaced humanized Mov19, full IgG1/kappa; also called humanized Mov19
binds: all assays above
